# Inconclusive results, whose numbers are uncertain, are shown with a selection of clear calls. Activity calls are given as the source filed them.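 The calls were made as follows: active = activation curve crossing 200% at or below the highest valid dose tested for that sample; inconclusive = flat curve with activation between 30 and 70%, or poor fit; inactive = the rest, including signal falling instead of rising.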
# Amino acid sequences for entries named in this document (tags omitted).
# UniProt Q8C129, whole entry, looked up: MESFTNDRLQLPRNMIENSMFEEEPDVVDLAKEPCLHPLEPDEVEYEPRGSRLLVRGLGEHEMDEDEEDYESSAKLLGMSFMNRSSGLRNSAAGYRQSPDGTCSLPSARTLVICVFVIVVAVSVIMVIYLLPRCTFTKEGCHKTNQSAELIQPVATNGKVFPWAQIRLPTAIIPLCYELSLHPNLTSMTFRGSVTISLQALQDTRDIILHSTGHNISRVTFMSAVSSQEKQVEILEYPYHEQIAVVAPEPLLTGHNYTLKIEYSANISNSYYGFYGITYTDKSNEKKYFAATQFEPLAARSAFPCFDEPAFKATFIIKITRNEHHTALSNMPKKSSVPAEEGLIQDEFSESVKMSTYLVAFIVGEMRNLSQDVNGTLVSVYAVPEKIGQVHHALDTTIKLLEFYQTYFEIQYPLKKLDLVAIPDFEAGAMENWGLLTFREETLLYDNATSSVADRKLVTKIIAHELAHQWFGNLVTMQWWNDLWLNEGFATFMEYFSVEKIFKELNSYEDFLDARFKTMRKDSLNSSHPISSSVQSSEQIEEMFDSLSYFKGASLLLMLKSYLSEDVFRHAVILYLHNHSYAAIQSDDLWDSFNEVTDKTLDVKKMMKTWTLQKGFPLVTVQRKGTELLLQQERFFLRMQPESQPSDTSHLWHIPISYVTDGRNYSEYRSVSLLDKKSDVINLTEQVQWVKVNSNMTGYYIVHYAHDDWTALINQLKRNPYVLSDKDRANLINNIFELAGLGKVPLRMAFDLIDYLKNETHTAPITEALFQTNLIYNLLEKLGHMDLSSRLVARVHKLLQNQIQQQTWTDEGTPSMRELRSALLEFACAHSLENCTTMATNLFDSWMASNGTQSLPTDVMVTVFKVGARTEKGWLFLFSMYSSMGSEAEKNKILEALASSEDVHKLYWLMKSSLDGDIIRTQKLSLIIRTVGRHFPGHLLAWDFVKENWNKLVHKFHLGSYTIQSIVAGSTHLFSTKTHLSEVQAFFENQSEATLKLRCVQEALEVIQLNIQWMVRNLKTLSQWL
# Molecular target: Leucyl-cystinyl aminopeptidase (Mus musculus) (UniProt Q8C129)
# Assay: IRAP activators, dose response, selectivity assay for ERAP1 modulator project, biochemical, Leu-AMC fluorescence, cherry-picked samples (AID 743339)
# Details: purified IRAP, Leu-AMC cleavage fluorescence, 1 h; at 11 µM (top of the series)
row,SMILES,activation
1,COc1ccc2c3c([nH]c2c1)[C@H](CO)N(Cc1cc(F)ccc1F)CC31CN(C)C1,inactive: 1.85%
2,CC(C)[C@@H](C(=O)N[C@@H](CCc1ccc(O)cc1)C(=O)O)N(C)C(=O)[C@H](CO)NC(=O)[C@@H](O)[C@H](N)CCCCCCCCl,inconclusive: -93.9%
